This is one part of the list.
Legend:
Assay in all cases: log2 fold change, soluble protein after heating vs DMSO (PISA); higher = thermal stabilisation; K562 lysate, 10 uM; active = over 0.2 and 3.5 SD of the protein, either way, in both replicates (recomputed)
erlotinib = compound: C#Cc1cccc(Nc2ncnc3cc(OCCOC)c(OCCOC)cc23)c1 [erlotinib]
How it was run: (§1)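 To prepare the extract, K562 pellets were dounce-homogenised in PBS pH 7.4 with 1 mM MgCl2, giving crude material at 1 mg/mL protein. This was treated with 10 μM compound for 30 min, then heated in aliquots for 3 min over 48°C-58°C before pooling and addition of NP-40 to 0.5% at 4°C. Centrifugation at 21,000xg for 90 min left soluble protein in the supernatant, which TMTpro 16plex LC-MS/MS quantified with equalised channel sums. Results are log-two fold changes in thermal stability compared with solvent controls, from duplicates.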

Chains of the proteins cited; added tags and fusions are not shown. Lines headed by an entry give the natural chain unless they say otherwise; changes in a name come on top.
UniProt Q15404: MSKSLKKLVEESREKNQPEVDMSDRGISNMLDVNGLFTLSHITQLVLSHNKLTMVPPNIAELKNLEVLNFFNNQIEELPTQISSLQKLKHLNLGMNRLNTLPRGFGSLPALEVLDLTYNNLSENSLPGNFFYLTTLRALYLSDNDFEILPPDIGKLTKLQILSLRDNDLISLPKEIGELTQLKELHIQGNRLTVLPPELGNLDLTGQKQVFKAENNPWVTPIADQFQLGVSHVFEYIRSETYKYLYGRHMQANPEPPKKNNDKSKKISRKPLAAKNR
UniProt P31350, whole entry, looked up: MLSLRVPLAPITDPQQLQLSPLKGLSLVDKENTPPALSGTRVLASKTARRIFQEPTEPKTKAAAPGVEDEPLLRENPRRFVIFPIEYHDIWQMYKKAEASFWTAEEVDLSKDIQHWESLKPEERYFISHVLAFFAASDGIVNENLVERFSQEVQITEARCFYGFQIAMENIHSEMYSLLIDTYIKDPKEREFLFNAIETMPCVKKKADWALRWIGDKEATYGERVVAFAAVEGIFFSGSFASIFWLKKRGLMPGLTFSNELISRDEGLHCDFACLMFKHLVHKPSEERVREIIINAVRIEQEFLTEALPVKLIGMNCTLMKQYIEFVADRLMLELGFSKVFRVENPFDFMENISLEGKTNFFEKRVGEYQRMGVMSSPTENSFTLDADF
UniProt P62070: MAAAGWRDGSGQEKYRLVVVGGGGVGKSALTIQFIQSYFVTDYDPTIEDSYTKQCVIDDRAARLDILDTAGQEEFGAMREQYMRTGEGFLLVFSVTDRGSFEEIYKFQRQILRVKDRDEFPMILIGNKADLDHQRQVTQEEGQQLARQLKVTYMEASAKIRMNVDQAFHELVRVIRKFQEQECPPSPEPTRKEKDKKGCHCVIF
UniProt Q7L099: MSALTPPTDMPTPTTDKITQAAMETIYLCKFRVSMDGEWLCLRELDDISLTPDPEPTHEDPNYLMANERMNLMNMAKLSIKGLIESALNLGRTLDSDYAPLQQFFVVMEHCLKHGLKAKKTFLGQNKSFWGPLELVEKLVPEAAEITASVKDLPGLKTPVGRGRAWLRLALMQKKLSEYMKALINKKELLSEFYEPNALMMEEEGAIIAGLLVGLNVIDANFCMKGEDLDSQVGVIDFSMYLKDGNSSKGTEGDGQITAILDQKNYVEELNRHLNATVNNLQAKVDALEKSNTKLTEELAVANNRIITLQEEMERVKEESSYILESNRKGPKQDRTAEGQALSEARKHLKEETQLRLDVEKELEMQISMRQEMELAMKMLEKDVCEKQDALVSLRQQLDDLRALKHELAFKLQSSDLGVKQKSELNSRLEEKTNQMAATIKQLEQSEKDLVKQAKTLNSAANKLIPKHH
UniProt Q5VT52: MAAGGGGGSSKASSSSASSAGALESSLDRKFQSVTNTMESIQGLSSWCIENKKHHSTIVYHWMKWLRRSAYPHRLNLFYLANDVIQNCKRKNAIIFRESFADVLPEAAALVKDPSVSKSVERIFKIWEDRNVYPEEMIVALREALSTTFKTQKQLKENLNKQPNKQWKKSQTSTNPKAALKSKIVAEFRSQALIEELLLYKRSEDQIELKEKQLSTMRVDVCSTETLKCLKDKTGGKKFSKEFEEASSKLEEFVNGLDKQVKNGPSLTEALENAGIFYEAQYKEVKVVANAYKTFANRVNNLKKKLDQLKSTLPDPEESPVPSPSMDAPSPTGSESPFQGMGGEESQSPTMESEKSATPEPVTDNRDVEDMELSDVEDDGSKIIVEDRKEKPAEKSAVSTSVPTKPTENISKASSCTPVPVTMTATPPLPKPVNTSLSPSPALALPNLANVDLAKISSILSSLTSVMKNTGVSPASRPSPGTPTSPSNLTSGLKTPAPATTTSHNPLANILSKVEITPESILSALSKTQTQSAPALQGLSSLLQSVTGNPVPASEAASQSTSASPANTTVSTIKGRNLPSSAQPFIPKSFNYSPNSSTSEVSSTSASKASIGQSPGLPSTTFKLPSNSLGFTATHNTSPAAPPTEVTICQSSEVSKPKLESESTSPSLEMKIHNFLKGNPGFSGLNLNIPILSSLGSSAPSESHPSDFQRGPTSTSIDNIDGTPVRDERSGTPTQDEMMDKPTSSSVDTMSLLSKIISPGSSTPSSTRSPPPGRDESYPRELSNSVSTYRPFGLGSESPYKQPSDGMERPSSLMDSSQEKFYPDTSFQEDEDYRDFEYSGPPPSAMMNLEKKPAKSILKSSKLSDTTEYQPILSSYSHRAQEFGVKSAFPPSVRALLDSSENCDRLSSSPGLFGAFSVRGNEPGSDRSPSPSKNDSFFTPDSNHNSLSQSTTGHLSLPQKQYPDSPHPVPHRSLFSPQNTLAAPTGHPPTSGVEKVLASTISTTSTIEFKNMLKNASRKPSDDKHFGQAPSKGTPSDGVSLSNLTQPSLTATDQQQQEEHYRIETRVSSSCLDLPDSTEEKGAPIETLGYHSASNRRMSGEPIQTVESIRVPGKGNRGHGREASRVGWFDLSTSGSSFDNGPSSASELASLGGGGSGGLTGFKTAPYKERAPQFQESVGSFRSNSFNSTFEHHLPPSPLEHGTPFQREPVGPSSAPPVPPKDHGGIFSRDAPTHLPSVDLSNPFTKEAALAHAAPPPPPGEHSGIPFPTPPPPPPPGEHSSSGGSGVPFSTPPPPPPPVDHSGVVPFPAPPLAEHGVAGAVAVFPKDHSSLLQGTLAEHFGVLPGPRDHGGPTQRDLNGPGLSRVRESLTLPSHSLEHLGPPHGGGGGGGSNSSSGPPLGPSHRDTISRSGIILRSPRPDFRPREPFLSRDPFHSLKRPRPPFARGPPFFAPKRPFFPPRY
UniProt Q7L4I2: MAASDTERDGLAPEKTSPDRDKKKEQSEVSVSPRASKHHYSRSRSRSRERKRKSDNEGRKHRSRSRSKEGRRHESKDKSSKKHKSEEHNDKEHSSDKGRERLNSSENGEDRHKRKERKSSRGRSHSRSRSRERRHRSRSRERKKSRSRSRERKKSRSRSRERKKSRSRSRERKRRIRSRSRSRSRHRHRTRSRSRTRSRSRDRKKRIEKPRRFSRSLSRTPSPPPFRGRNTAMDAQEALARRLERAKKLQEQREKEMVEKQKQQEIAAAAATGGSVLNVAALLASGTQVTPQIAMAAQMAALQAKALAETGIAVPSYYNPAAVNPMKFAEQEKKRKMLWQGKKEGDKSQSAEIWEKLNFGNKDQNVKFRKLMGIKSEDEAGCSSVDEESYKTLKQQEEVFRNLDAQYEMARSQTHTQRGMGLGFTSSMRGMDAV
UniProt Q96P16: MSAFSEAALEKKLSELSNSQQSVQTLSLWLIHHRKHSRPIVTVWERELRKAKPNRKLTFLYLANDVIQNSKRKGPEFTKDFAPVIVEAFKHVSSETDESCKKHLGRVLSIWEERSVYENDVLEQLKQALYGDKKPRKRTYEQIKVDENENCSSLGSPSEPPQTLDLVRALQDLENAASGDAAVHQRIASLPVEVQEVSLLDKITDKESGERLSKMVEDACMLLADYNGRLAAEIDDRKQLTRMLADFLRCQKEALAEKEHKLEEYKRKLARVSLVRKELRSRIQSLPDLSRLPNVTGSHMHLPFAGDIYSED
UniProt Q8IZ73: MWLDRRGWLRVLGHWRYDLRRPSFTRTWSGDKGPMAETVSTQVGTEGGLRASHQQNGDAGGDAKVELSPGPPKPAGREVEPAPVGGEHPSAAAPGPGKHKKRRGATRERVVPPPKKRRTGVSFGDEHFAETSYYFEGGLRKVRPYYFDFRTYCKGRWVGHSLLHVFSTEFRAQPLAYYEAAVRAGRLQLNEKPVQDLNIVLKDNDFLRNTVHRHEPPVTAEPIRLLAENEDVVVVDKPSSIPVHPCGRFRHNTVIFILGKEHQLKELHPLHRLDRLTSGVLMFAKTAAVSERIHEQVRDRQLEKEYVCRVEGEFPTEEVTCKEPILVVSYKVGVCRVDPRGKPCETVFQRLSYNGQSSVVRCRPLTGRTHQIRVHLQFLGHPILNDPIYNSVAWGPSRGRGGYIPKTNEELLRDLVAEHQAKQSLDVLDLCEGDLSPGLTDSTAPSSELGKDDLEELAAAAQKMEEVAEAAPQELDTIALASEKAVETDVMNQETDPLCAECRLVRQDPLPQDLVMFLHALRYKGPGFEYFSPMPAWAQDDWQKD
UniProt Q01196, whole entry, looked up: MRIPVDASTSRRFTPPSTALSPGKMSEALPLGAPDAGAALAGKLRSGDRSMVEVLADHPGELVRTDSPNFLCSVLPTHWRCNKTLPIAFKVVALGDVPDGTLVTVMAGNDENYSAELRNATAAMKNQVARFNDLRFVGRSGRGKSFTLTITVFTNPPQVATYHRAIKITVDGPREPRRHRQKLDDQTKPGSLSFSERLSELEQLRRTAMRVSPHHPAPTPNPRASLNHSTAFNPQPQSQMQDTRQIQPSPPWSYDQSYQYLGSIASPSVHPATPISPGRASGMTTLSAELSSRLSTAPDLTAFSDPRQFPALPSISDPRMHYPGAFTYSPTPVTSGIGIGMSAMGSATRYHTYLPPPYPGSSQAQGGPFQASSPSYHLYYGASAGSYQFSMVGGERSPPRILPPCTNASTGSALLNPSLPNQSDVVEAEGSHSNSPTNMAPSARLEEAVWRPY
UniProt Q5VZM2, whole entry, looked up: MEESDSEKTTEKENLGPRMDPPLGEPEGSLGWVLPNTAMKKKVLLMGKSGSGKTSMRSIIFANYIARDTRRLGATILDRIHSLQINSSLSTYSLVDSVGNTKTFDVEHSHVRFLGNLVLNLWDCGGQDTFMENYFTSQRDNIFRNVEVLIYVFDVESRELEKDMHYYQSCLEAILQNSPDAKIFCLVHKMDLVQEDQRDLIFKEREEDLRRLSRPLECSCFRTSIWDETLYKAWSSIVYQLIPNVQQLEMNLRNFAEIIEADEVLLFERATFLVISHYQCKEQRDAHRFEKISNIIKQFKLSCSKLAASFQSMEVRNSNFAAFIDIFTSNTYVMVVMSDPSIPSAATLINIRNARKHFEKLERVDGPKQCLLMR

[1] = compound: C/C(=N\NC(=O)C1=CC(=CC=C1)S(=O)(=O)N2CCOCC2)/C3=C(C=CC(=C3)Cl)O
How it was run: as §1

[2] = compound: C1=CC(=CC=C1C2=NC3=C(N2)C=C(C=C3)C(=O)N)OC4=CC=C(C=C4)Cl
How it was run: as §1

[3] = compound: C1=CC2=C(C=CC(=C2)/C=C\3/C(=O)NC(=NCC4=CC=CS4)S3)N=C1
How it was run: as §1

[4] = compound: C1=CC2=NC=CN=C2C=C1/C=C/3\C(=O)NC(=O)S3
How it was run: as §1

[5] = compound: C1=CC=C(C=C1)C2=NC(=C(N2)C3=CC=NC=C3)C4=CC(=C(C=C4)Cl)O
How it was run: as §1

[6] = compound: C1=CC=C2C(=C1)C3=NNC4=CC=CC(=C43)C2=O
How it was run: as §1

[7] = compound: C1CCN(C1)C(=O)NC2=CC=CC(=C2)NC3=NC=C(C(=N3)NCCC4=CN=CN4)Br
How it was run: as §1

[8] = compound: C1CN(CCC1(CC2=CC=C(C=C2)Cl)N)C3=NC=NC4=C3C=CN4
How it was run: as §1

IRAK-1-4 Inhibitor I = compound: C1COCCN1CCN2C3=CC=CC=C3N=C2NC(=O)C4=CC(=CC=C4)[N+](=O)[O-] [IRAK-1-4 Inhibitor I]
How it was run: as §1

ibrutinib = compound: C=CC(=O)N1CCC[C@@H](n2nc(-c3ccc(Oc4ccccc4)cc3)c3c(N)ncnc32)C1 [ibrutinib]
How it was run: as §1

[9] = compound: CC(=O)c1cnc2ccc(-c3cc(Cl)c(O)c(Cl)c3)nc2c1N[C@H]1CC[C@H](CN(C)C)CC1
How it was run: as §1

ralimetinib = compound: CC(C)(C)Cn1c(N)nc2ccc(-c3[nH]c(C(C)(C)C)nc3-c3ccc(F)cc3)nc21 [ralimetinib]
How it was run: as §1

[10] = compound: CC(C)(O)CC(=O)NCCn1ccc2ncnc(Nc3ccc(Oc4cccc(C(F)(F)F)c4)c(Cl)c3)c21
How it was run: as §1

[11] = compound: CC(C)C1=C2N=C(C=C(N2N=C1)NCC3=CC=CC=C3)NCCCCCCN
How it was run: as §1

[12] = compound: CC1=C(C(CC(=O)N1)C2=CC=C(C=C2)C(F)(F)F)C(=O)NC3=C(C=C4C(=C3)C=NN4)F
How it was run: as §1

[13] = compound: CC1=C(C2=C(C=C1)C(=O)C3=CC=CC=C3N2CCCN)C
How it was run: as §1

[14] = compound: CC1=C(C=C(C=C1)NC(=O)C2=CC(=CC=C2)C(C)(C)C#N)NC3=CC4=C(C=C3)N=CN(C4=O)C
How it was run: as §1

[15] = compound: CC1=C(C=C(C=C1)NC(=O)C2=CC(=CC=C2)N(C)C)NC(=O)C3=CC=C(C=C3)O
How it was run: as §1

[16] = compound: CC1=CC=C(C=C1)SC2=C3C=C(SC3=CN=C2)C(=O)N
How it was run: as §1

Measured: log2 fold change

RPS26 (UniProt P62854)
inactive: erlotinib 0.007 | [1] 0.012 | [2] 0.06 | [3] 0.022 | [4] 0.054 | [5] 0.031 | [6] 0.063 | [7] -0.015 | [8] -0.022 | IRAK-1-4 Inhibitor I -0.019 | ibrutinib -0.046 | [9] 0 | ralimetinib 0.002 | [10] -0.052 | [11] 0.007 | [12] 0.058 | [13] -0.089 | [14] 0.033 | [15] 0.012 | [16] 0.06

RPSA (UniProt P08865)
inactive: erlotinib 0.025 | [1] -0.057 | [2] -0.004 | [3] -0.033 | [4] -0.011 | [5] -0.009 | [6] -0.062 | [7] -0.002 | [8] 0.005 | IRAK-1-4 Inhibitor I 0.006 | ibrutinib 0.009 | [9] -0.013 | ralimetinib -0.004 | [10] -0.019 | [11] 0.006 | [12] -0.003 | [13] -0.033 | [14] 0.017 | [15] 0.01 | [16] 0.012

RSU1 (UniProt Q15404)
inactive: erlotinib 0.017 | [1] 0.006 | [2] -0.039 | [3] -0.052 | [4] -0.011 | [5] -0.003 | [6] 0.017 | [7] 0.009 | [8] -0.027 | IRAK-1-4 Inhibitor I 0 | ibrutinib 0 | [9] 0.005 | ralimetinib -0.005 | [10] -0.02 | [11] 0.005 | [12] 0.019 | [13] -0.022 | [14] -0.017 | [15] -0.027 | [16] -0.012

RRM2 isoform 2 (UniProt P31350)
inactive: erlotinib -0.047 | [1] -0.015 | [2] -0.018 | [3] -0.004 | [4] -0.002 | [5] 0.005 | [6] 0.037 | [7] -0.026 | [8] -0.038 | IRAK-1-4 Inhibitor I -0.012 | ibrutinib 0.065 | [9] 0.004 | ralimetinib 0.003 | [10] 0.038 | [11] -0.015 | [12] -0.008 | [13] 0.022 | [14] 0.035 | [15] -0.062 | [16] -0.018

RPL7L1 (UniProt Q6DKI1)
inactive: erlotinib -0.067 | [1] -0.025 | [2] -0.017 | [3] -0.022 | [4] 0.022 | [5] 0.054 | [6] 0.017 | [7] -0.025 | [8] 0.022 | IRAK-1-4 Inhibitor I -0.015 | ibrutinib 0.03 | [9] 0.012 | ralimetinib 0.004 | [10] 0.009 | [11] 0.041 | [12] -0.034 | [13] -0.048 | [14] 0.008 | [15] 0.024 | [16] 0.015

RRAS2 (UniProt P62070)
inactive: erlotinib -0.024 | [1] 0.033 | [2] 0.061 | [3] 0.002 | [4] 0.007 | [5] -0.033 | [6] -0.014 | [7] 0.024 | [8] -0.061 | IRAK-1-4 Inhibitor I 0.027 | ibrutinib 0.044 | [9] -0.05 | ralimetinib 0.011 | [10] -0.024 | [11] 0.016 | [12] 0.049 | [13] 0.065 | [14] -0.012 | [15] 0.056 | [16] -0.051

RPL7A (UniProt P62424)
inactive: erlotinib -0.002 | [1] -0.08 | [2] -0.005 | [3] -0.015 | [4] -0.012 | [5] 0.045 | [6] 0.025 | [7] 0.045 | [8] 0.008 | IRAK-1-4 Inhibitor I 0.028 | ibrutinib -0.046 | [9] 0.007 | ralimetinib -0.007 | [10] -0.025 | [11] -0.003 | [12] -0.038 | [13] -0.016 | [14] -0.029 | [15] -0.011 | [16] 0.018

Quoted at random: 2 entries already listed
RRAS2 (UniProt P62070)
inactive: erlotinib -0.024 | [1] 0.033 | [2] 0.061 | [3] 0.002 | [4] 0.007 | [5] -0.033 | [6] -0.014 | [7] 0.024 | [8] -0.061 | IRAK-1-4 Inhibitor I 0.027 | ibrutinib 0.044 | [9] -0.05 | ralimetinib 0.011 | [10] -0.024 | [11] 0.016 | [12] 0.049 | [13] 0.065 | [14] -0.012 | [15] 0.056 | [16] -0.051

RRM2 isoform 2 (UniProt P31350)
inactive: erlotinib -0.047 | [1] -0.015 | [2] -0.018 | [3] -0.004 | [4] -0.002 | [5] 0.005 | [6] 0.037 | [7] -0.026 | [8] -0.038 | IRAK-1-4 Inhibitor I -0.012 | ibrutinib 0.065 | [9] 0.004 | ralimetinib 0.003 | [10] 0.038 | [11] -0.015 | [12] -0.008 | [13] 0.022 | [14] 0.035 | [15] -0.062 | [16] -0.018

(next part)

RUFY3 isoform 3 (UniProt Q7L099)
inactive: erlotinib -0.001 | [1] -0.008 | [2] 0.027 | [3] -0.005 | [4] -0.012 | [5] -0.015 | [6] -0.001 | [7] 0.022 | [8] -0.01 | IRAK-1-4 Inhibitor I -0.001 | ibrutinib 0.016 | [9] 0.008 | ralimetinib 0.019 | [10] -0.054 | [11] 0.003 | [12] -0.009 | [13] 0.006 | [14] 0.003 | [15] -0.002 | [16] -0.034

RPRD2 (UniProt Q5VT52)
inactive: erlotinib -0.066 | [1] 0.01 | [2] 0.026 | [3] -0.016 | [4] 0.022 | [5] 0.017 | [6] 0.028 | [7] 0.004 | [8] 0.005 | IRAK-1-4 Inhibitor I -0.037 | ibrutinib -0.028 | [9] 0.03 | ralimetinib 0.004 | [10] -0.096 | [11] 0.057 | [12] 0.032 | [13] 0 | [14] 0 | [15] 0.066 | [16] 0.035

RSRC2 (UniProt Q7L4I2)
inactive: erlotinib -0.093 | [1] 0.061 | [2] 0.031 | [3] 0.032 | [4] -0.029 | [5] 0.022 | [6] -0.005 | [7] -0.015 | [8] -0.02 | IRAK-1-4 Inhibitor I -0.048 | ibrutinib -0.025 | [9] -0.016 | ralimetinib -0.004 | [10] -0.003 | [11] -0.046 | [12] -0.009 | [13] 0.039 | [14] -0.028 | [15] -0.002 | [16] -0.028

RPRD1A (UniProt Q96P16)
inactive: erlotinib 0.015 | [1] 0 | [2] 0.012 | [3] 0.001 | [4] -0.021 | [5] 0.005 | [6] -0.048 | [7] -0.04 | [8] -0.018 | IRAK-1-4 Inhibitor I -0.022 | ibrutinib 0.073 | [9] 0.047 | ralimetinib 0.058 | [10] -0.047 | [11] 0.048 | [12] -0.033 | [13] 0.007 | [14] 0.019 | [15] 0.005 | [16] -0.001

RPUSD2 (UniProt Q8IZ73)
inactive: erlotinib 0.025 | [1] -0.085 | [2] 0.017 | [3] -0.029 | [4] 0.012 | [5] 0.008 | [6] 0.003 | [7] -0.011 | [8] 0.024 | IRAK-1-4 Inhibitor I -0.005 | ibrutinib 0.009 | [9] 0.003 | ralimetinib -0.009 | [10] -0.007 | [11] -0.028 | [12] 0.003 | [13] -0.021 | [14] 0.016 | [15] -0.029 | [16] -0.024

RUNX1 isoform 8 (UniProt Q01196)
inactive: erlotinib -0.059 | [1] -0.13 | [2] -0.008 | [3] 0.053 | [4] 0.043 | [5] -0.115 | [6] 0.011 | [7] 0.063 | [8] -0.024 | IRAK-1-4 Inhibitor I 0.045 | ibrutinib -0.082 | [9] 0.035 | ralimetinib -0.025 | [10] 0.021 | [11] 0.011 | [12] 0.064 | [13] 0.038 | [14] -0.198 | [15] -0.043 | [16] -0.022

RPS17 (UniProt P08708)
inactive: erlotinib -0.013 | [1] 0.008 | [2] -0.024 | [3] -0.042 | [4] -0.018 | [5] 0.006 | [6] 0.015 | [7] 0.014 | [8] -0.028 | IRAK-1-4 Inhibitor I 0.01 | ibrutinib 0.015 | [9] 0.033 | ralimetinib -0.032 | [10] 0.016 | [11] 0.008 | [12] 0.013 | [13] -0.014 | [14] -0.034 | [15] 0.004 | [16] 0.037

RRAGB (UniProt Q5VZM2)
inactive: erlotinib -0.025 | [1] 0.022 | [2] -0.031 | [3] 0.014 | [4] 0.002 | [5] -0.012 | [6] -0.022 | [7] -0.039 | [8] -0.022 | IRAK-1-4 Inhibitor I 0.027 | ibrutinib -0.008 | [9] -0.022 | ralimetinib 0.034 | [10] -0.034 | [11] 0.008 | [12] -0.021 | [13] -0.043 | [14] -0.006 | [15] 0.003 | [16] -0.015

RPS20 isoform 2 (UniProt P60866)
inactive: erlotinib 0.007 | [1] 0.045 | [2] -0.047 | [3] -0.044 | [4] 0.005 | [5] -0.016 | [6] 0.01 | [7] 0.012 | [8] -0.014 | IRAK-1-4 Inhibitor I -0.034 | ibrutinib -0.02 | [9] -0.008 | ralimetinib 0.001 | [10] -0.008 | [11] -0.006 | [12] -0.006 | [13] -0.012 | [14] 0.041 | [15] -0.019 | [16] 0.038

From the supplement of paper PMC10849652
